## Percent effect of library compounds

Sequences of proteins named here, by UniProt entry; tags and fusion partners are left off. Residues count along the entry.
UniProt I6X8D2, whole entry: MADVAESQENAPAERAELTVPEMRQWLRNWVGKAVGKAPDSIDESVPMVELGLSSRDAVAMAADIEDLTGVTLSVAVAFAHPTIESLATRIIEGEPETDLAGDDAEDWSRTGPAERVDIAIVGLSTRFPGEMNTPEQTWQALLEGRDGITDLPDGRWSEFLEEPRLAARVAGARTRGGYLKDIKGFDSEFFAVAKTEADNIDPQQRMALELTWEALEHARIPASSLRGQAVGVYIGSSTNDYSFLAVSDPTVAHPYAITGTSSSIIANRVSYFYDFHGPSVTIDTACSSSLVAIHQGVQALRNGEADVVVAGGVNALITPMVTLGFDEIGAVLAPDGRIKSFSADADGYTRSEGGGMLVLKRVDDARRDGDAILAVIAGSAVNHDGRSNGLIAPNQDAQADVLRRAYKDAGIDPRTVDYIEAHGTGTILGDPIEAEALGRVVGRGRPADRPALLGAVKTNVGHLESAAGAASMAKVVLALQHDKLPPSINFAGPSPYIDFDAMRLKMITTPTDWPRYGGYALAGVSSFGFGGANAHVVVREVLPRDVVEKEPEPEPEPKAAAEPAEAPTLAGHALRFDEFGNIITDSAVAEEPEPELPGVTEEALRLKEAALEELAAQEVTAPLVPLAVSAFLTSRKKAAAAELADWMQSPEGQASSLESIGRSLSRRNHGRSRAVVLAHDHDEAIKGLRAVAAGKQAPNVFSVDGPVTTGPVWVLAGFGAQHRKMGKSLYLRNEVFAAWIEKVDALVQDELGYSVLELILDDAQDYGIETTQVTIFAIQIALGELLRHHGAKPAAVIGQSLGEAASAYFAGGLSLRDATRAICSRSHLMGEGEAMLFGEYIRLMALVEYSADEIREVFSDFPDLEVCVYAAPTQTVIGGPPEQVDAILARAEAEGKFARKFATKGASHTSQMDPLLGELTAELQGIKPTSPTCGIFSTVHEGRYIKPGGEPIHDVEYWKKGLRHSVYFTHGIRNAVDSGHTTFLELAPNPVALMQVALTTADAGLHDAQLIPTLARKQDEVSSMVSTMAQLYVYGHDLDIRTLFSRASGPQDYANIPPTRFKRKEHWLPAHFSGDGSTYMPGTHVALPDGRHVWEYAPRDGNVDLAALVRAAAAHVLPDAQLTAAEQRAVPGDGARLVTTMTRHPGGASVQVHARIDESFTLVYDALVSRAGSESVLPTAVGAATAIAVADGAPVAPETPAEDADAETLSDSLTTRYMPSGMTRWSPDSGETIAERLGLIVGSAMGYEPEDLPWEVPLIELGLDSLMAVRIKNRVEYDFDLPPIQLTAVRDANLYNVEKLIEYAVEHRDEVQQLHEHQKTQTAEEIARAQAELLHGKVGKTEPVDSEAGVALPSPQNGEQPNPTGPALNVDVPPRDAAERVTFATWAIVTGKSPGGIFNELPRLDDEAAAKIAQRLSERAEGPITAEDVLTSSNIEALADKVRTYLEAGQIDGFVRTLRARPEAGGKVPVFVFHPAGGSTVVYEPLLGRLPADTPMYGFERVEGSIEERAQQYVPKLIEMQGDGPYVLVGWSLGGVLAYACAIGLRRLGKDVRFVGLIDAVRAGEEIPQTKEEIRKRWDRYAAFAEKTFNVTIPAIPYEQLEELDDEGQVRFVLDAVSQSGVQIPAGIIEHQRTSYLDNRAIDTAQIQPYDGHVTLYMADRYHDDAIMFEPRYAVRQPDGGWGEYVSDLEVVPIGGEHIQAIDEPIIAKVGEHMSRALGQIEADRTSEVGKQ
UniProt Q4DA54, 1-478: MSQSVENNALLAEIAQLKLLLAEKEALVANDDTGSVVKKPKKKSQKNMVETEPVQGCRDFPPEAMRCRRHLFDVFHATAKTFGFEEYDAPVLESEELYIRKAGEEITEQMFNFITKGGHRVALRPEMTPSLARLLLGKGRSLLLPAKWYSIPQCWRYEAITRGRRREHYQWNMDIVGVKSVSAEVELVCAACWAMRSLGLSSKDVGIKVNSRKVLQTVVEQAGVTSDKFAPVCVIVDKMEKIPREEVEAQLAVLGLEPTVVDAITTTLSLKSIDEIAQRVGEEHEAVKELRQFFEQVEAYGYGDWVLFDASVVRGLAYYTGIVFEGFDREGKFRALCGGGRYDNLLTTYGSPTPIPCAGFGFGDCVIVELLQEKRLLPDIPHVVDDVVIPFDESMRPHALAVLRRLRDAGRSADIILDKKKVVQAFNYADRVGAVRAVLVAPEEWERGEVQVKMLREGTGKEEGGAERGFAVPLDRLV
UniProt P9WPC5, whole entry: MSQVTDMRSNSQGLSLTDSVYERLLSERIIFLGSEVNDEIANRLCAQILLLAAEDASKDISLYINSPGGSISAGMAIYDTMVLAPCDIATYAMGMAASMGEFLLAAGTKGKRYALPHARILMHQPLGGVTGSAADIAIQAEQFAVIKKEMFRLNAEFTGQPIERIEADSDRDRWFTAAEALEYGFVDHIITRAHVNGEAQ
UniProt P9WPC3, whole entry partner: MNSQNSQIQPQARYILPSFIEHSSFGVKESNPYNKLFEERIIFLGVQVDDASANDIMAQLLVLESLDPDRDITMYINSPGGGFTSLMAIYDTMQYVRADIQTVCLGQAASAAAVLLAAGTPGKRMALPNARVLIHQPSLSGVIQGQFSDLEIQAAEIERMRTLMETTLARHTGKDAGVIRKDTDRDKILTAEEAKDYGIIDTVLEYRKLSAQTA
UniProt A4I591, 1-473: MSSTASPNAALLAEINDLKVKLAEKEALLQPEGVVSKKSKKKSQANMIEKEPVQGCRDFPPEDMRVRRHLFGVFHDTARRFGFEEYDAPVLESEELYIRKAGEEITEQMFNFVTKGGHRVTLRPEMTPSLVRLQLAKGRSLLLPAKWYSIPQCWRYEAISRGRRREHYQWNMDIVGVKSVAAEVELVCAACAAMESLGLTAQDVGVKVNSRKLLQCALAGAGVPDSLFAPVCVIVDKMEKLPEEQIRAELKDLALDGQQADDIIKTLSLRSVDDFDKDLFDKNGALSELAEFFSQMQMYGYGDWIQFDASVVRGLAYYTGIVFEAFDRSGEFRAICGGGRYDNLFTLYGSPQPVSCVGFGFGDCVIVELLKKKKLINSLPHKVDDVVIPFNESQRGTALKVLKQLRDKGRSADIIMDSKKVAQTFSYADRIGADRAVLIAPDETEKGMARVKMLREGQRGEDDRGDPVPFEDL

Pks13 thioesterase: 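Polyketide synthase Pks13, Mycobacterium tuberculosis (UniProt I6X8D2). Enzyme assay of the thioesterase domain of polyketide synthase 13; the read-out is not stated. Concentration: 30 µM. Higher reads as stronger inhibition (inferred from which compounds were picked for retests). Size under these conditions: about 67,000 compounds, about 300 of them at 50% or above in at least one test.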
TcHisRS: 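Enzyme assay of histidyl-tRNA synthetase; the read-out is not stated. Target: Histidine-tRNA ligase, Trypanosoma cruzi CL Brener (UniProt Q4DA54). Concentration: 30 µM. Higher reads as stronger inhibition (inferred: compounds with an IC50 in retests scored well above the rest). About 69,000 compounds were tested under these conditions; 0.045% (about 31) showed 50% or more at least once.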
ClpP1P2: 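Protease assay of ClpP1P2, read by the AMC dye that it sets free. Target: ClpP1P2, Mycobacterium tuberculosis (UniProt P9WPC5 and UniProt P9WPC3). Tested at 50 µM. Higher reads as stronger inhibition, judged from the few compounds that gave an IC50. Most other retested compounds had strongly negative values. Of about 69,000 compounds tested this way, about 10 (0.015%) reached 50% or more in at least one test.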
Leishmania in macrophages: 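Cell assay of Leishmania donovani living inside macrophages; the read-out is not stated. Compounds at 30 µM. The record gives no direction; compounds that gave an IC50 in retests scored well above the rest, so higher reads as stronger inhibition. About 69,000 compounds were tested under these conditions; 1.5% (about 1,000) showed 50% or more at least once.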
LiHisRS: 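Histidine-tRNA ligase, Leishmania infantum (UniProt A4I591). Enzyme assay of histidyl-tRNA synthetase; the read-out is not stated. Compounds at 30 µM. The record gives no direction; compounds that gave an IC50 in retests scored well above the rest, so higher reads as stronger inhibition. The assay is labelled LdHisRS but filed under L. infantum. About 69,000 compounds were tested under these conditions; 0.6% (about 410) showed 50% or more at least once.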

Values are the deposited “Percent Effect”, in %. The controls that fix the scale are not given in the record; negative values are as filed. Compounds were drawn at random from those tested, without regard to their results. Two or more numbers in one place are separate tests of the same structure; such repeats can differ widely.

For CCOC(=O)C1CCN(CCCc2nnnn2-c2ccccc2)CC1 the result was Pks13 thioesterase: -38.17%; TcHisRS: 2.618%; ClpP1P2: 1.964%; Leishmania in macrophages: 3.089%; LiHisRS: 1.724%. Cc1n[nH]c2c1C(c1ccc(O)c(Cl)c1)SCC(=O)N2 (stereo not drawn) read Pks13 thioesterase: -44.99%; TcHisRS: -0.5464%; ClpP1P2: 1.889%; Leishmania in macrophages: -28.84%; LiHisRS: 11.65%. CC(Nc1ncnc2c1CCNC2)c1ccc(C(C)(C)C)cc1 (stereo not drawn) read Pks13 thioesterase: -4.076%; TcHisRS: 27.59%; ClpP1P2: -26.25%; Leishmania in macrophages: 88.55%; LiHisRS: 17.74%. CNC(=O)C(c1cccc(Cl)c1)C(C)C (stereo not drawn) read Pks13 thioesterase: -4.167%; TcHisRS: 1.19%; ClpP1P2: 1.166%; Leishmania in macrophages: 6.065%; LiHisRS: 1.55%. With CCc1ccc(C(COC)NC(=O)c2ccc(C(N)=O)cc2)o1 (stereo not drawn) the screen gave Pks13 thioesterase: -8.559%; TcHisRS: 2.632%; ClpP1P2: 7.113%; Leishmania in macrophages: 64.18%; LiHisRS: 15.93%.

Result for CN(C)c1ncccc1CNC(=O)NCc1ccco1 was Pks13 thioesterase: -32.04%; TcHisRS: 0%; ClpP1P2: 0.3019%; Leishmania in macrophages: -26.38%; LiHisRS: 18.33%. Result for CCOCc1nc2c(c(NC(CC)c3ccnn3C)n1)CCNCC2 (stereo not drawn) was Pks13 thioesterase: -11.26%; TcHisRS: 0%; ClpP1P2: -2.584%; Leishmania in macrophages: -10.43%; LiHisRS: 10.45%. Result for c1ccc(-n2nnnc2CNCC2CCCN2c2cccnn2)cc1 (stereo not drawn) was Pks13 thioesterase: -14.26%; TcHisRS: 14.45%; ClpP1P2: -13.84%; Leishmania in macrophages: 21.69%; LiHisRS: 27.19%. With Cc1ccc(-c2nc3c([nH]2)CCNC3C(=O)O)c2cccnc12 (stereo not drawn) the screen gave Pks13 thioesterase: -27.44%; TcHisRS: 12.29%; ClpP1P2: -1.773%; Leishmania in macrophages: 12.68%; LiHisRS: 6.25%. With O=C(CS(=O)(=O)Cc1ccccc1)NCc1ccccc1F the screen gave Pks13 thioesterase: 9.564%; TcHisRS: -0.9804%; ClpP1P2: -29.62%; Leishmania in macrophages: 10.19%; LiHisRS: 9.6%.

COC(=O)CCCNC(=O)COc1ccccc1C(F)(F)F gave Pks13 thioesterase: -32.38%; TcHisRS: 4.046%; ClpP1P2: 2.805%; Leishmania in macrophages: 1.423%; LiHisRS: 6.667%. Result for CCn1ncc(NC(=O)c2cc(C3CC3)nc3c2c(C)nn3C)c1C was Pks13 thioesterase: 2.43%; TcHisRS: 0%; ClpP1P2: 10.01%; Leishmania in macrophages: -3.46%; LiHisRS: 28.57%. Result for C[C@]1(O)CN(Cc2ncc[nH]2)CC[C@@H]1Oc1cccc(F)c1 was Pks13 thioesterase: 13.16%; TcHisRS: 12.09%; ClpP1P2: -3.88%; Leishmania in macrophages: 2.401% and 14.17%; LiHisRS: 18.84%. For CCOCCn1nc(C)cc1C(=O)N1CC[C@](C)(O)[C@H](C)C1 the result was Pks13 thioesterase: -14.28%; TcHisRS: 6.667%; ClpP1P2: -6.531%; Leishmania in macrophages: -1.172%; LiHisRS: 21.15%. For N#CC1(NC(=O)Cn2nnc(-c3cc4ccccc4o3)n2)CCCC1 the result was Pks13 thioesterase: 3.164%; TcHisRS: 0%; ClpP1P2: 8.056%; Leishmania in macrophages: 13.61%; LiHisRS: -0.8929%.

With CN(C)CCN1C(=O)CO[C@@H]2CN(c3ncc(F)cn3)C[C@H]21 the screen gave Pks13 thioesterase: -21.05%; TcHisRS: 2.454%; ClpP1P2: 0.3828%; LiHisRS: 8.547%. Result for Cn1cc(C(=O)N2CCN(c3ccccc3)CC2)ccc1=O was Pks13 thioesterase: 2.915%; TcHisRS: 9.524%; ClpP1P2: 7.259%; Leishmania in macrophages: 16.33%; LiHisRS: 10.96%. Result for Cc1cnn(CCCn2ncc(N3CCC(CN)C3)cc2=O)c1 (stereo not drawn) was Pks13 thioesterase: 13.18%; TcHisRS: 4.598%; ClpP1P2: 14.93%; Leishmania in macrophages: -32.7%; LiHisRS: 17.95%. Result for Cc1cccc(C(=O)N2Cc3ccccc3C3(CCN(C)CC3)C2)n1 was Pks13 thioesterase: -2.028%; TcHisRS: 2.521%; ClpP1P2: 10.98%; Leishmania in macrophages: 22.28%; LiHisRS: 10.09%.

Data taken from ChEMBL document CHEMBL3988442, “University of Dundee, Small-Polar-MMV Screening Library” (2021).